Source: PMC3585722
No constants are given. Whether binding was seen depends on the method and setting. Binding can be weak; no strength is given. For some assays here: In cells and extracts the contact can be indirect.

The chains behind the UniProt entries cited, without tags or fusion partners. Where a name states a change or a piece, a line headed by the entry shows the natural chain unless it says otherwise.
UniProt P31431: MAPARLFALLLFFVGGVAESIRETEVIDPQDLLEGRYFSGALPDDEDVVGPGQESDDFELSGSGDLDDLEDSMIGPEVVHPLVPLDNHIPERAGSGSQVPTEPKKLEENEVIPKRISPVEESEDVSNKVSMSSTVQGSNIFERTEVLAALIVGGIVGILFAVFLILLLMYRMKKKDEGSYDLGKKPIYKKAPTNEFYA
UniProt P26447: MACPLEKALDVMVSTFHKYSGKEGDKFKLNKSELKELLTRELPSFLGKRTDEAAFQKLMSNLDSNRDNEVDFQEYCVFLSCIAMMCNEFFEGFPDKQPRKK

How the values were obtained:
[1] = molecular target: recombinant human syndecan-4 (with his-tag) (human) (UniProt P31431); assay: co-IP; in vitro crosslinking reaction of S100A4 with gplTG, with or without TG inhibitor R283, then 1 µg recombinant human syndecan-4 at 37°C for 1 h; beads with anti-syndecan-4 antibody; Western blot for S100A4; both purified
[2] = molecular target: recombinant human S100A4 (after cleavage of the his-tags) (human) (UniProt P26447); assay: ELISA; solid phase binding assay: S100A4 (his-tags removed, 1 μg/ml, Na2CO3 pH 9.6) coated on 96-well plates; 2 μg/ml his-tagged syndecan-4 in 50 mM Tris-HCl pH 7.4, 37°C, 1 h; detected by anti-his-tag antibody, OPD, 490 nm; both purified

binding [1] | binding [2] | Substance
binds | – | recombinant human S100A4 (after cleavage of the his-tags) (from UniProt P26447 1-101)
– | binds | recombinant human syndecan-4 (with his-tag) (from UniProt P31431) (receptor)
